Results from the supplement of paper PMC8732350.
Values joined by “and” are separate entries in the source; they are usually repeats but may differ in a detail not shown here. Equal values may be shown once. Where a name gives a salt, the structure may show the parent alone. ± gives the standard deviation of the averaged measurements. Some of the results follow. Repeats in this data set agree poorly, so a single value says little.

Test system: A549
Experiment: surface PD-L1 immunofluorescence intensity relative to IFN-gamma-only control (ratio); higher = more PD-L1 expression
Conditions: 10 µM; exposure time 24 h; IFN-gamma 100 ng/mL

| SMILES | surface PD-L1 immunofluorescence intensity |
| --- | --- |
| C[N+](C)(C)CC[N+]1(C)Cc2c(Cl)c(Cl)c(Cl)c(Cl)c2C1 [Chlorisondamine diiodide] | 0.999 |
| CN1CCN(c2c(F)cc3c(=O)c(C(=O)O)cn(CCF)c3c2F)CC1 [Fleroxacin] | 0.978 |
| CC(=O)OCC(CCn1cnc2cnc(N)nc21)COC(C)=O [Famciclovir] | 0.975 |
| COc1ccc([C@@H]2CC(=O)c3c(O)cc(O[C@@H]4O[C@H](CO)[C@@H](O)[C@H](O)[C@H]4O[C@@H]4O[C@@H](C)[C@H](O)[C@@H](O)[C@H]4O)cc3O2)cc1O [Neohesperidin] | 1.13 |
| NNc1nncc2ccccc12 [Hydralazine hydrochloride] | 0.959 |
| NNc1nncc2ccccc12 [Hydralazine HCl] | 1.02 |
| O=C(/C=C/c1ccc(O)c(O)c1)OCCc1ccccc1 [Caffeic acid phenethyl ester] | 0.918 |
| COc1c2occc2c(OC)c2c(=O)cc(C)oc12 [Khellin] | 0.916 |
| Nc1cc(C(Cl)=C(Cl)Cl)c(S(N)(=O)=O)cc1S(N)(=O)=O [Clorsulon] | 1.02 |
| Cc1ccc2c(c1)C(=O)C1(O)CCN(c3ccccc3)C1=N2 (stereo not drawn) [(?)-Blebbistatin] | 0.992 |
| CC[C@H](C)C(=O)O[C@H]1CCC=C2C=C[C@H](C)[C@H](CC[C@@H]3C[C@@H](O)CC(=O)O3)[C@H]21 [Mevastatin] | 0.985 ± 0.02 |
| O=c1oc2ccccc2c(O)c1Cc1c(O)c2ccccc2oc1=O [Dicumarol] | 1 |
| Cn1ccc2cc(NC(=O)Nc3cccnc3)ccc21 | 1.02 |
| CN(C)C[C@@H]1CCn2cc(c3ccccc32)C2=C(C(=O)NC2=O)c2cn(c3ccccc23)CCO1 | 0.985 |
| CN1CCN(CCCN2c3ccccc3Sc3ccc(Cl)cc32)CC1 [Prochlorperazine dimaleate] | 0.92 |
| O=C1c2ccccc2C(=O)c2c1ccc(O)c2O [Alizarin] | 0.968 |
| CC(/C=C1\SC(=S)N(CC(=O)O)C1=O)=C\c1ccccc1 [Epalrestat] | 1.16 |
| CCC(=O)OCN1C(=O)C=CC1=O | 0.987 |
| CCN(CC)CCc1nc(-c2ccccc2)no1 [Oxalamine citrate salt] | 1.02 |
| CC(C)NCC(O)c1ccc(O)c(O)c1 (single isomer, unassigned; (+)) [(+)-Isoproterenol (+)-bitartrate salt] | 0.979 |
| COc1ccc([C@]2(C#N)CC[C@@H](C(=O)O)CC2)cc1OC1CCCC1 | 1.01 |
| CNCC(O)c1ccc(OC(=O)C(C)(C)C)c(OC(=O)C(C)(C)C)c1 (stereo not drawn) [Dipivefrin hydrochloride] | 0.974 |
| O=C(NCCO)c1cccc(-c2cc(Nc3ccc(OC(F)(F)F)cc3)ncn2)c1 | 1.07 |
| O=S(=O)(O)NC1CCCCC1 [Cyclamic  acid] | 0.992 |
| CC(C)NC[C@@H](O)COc1cccc2ccccc12 [(R)-Propranolol hydrochloride] | 1.01 |
| CC(C)NC[C@@H](O)COc1cccc2ccccc12 [(R)-(+)-Propranolol hydrochloride] | 0.89 |

Given bar-delimited: part of the list above.
SMILES | surface PD-L1 immunofluorescence intensity
NNc1nncc2ccccc12 [Hydralazine HCl] | 1.02
O=C(/C=C/c1ccc(O)c(O)c1)OCCc1ccccc1 [Caffeic acid phenethyl ester] | 0.918

The list continues:

| SMILES | surface PD-L1 immunofluorescence intensity |
| --- | --- |
| Nc1nc2ccc(Cl)cc2c2nc(-c3ccco3)nn12 | 0.999 |
| CCC(C)N(C)C(=O)c1cc2ccccc2c(-c2ccccc2Cl)n1 (stereo not drawn) | 1.05 |
| COc1cc2c(cc1C(F)(F)F)N(C(=O)Nc1cc(F)cc(-c3cccnc3)c1)CC2 | 1.07 |
| Cc1c(N(C)CS(=O)(=O)O)c(=O)n(-c2ccccc2)n1C [Dipyrone] | 1.01 |
| C[C@@H]1CCN(C(=O)CC#N)C[C@@H]1N(C)c1ncnc2[nH]ccc12 | 0.747 and 0.696 |
| Cc1cc2c(F)c(Oc3ncnn4cc(OC[C@@H](C)OC(=O)[C@H](C)N)c(C)c34)ccc2[nH]1 | 0.979 ± 0.064 |
| CNc1cc(OC)c(C(=O)NC2CCN(Cc3ccccc3)C2C)cc1Cl (stereo not drawn) [Nemonapride] | 0.997 |
| COc1cc2c(Oc3ccc4[nH]c(C)cc4c3F)ncnc2cc1OCCCN1CCCC1 [Cediranib (AZD2171)] | 0.979 |
| CC(C)NCC(O)c1ccc2ccccc2c1 (stereo not drawn) [Pronethalol hydrochloride] | 0.9898 ± 0.0074 |
| CC(=O)O[C@]1(C(C)=O)CC[C@H]2[C@@H]3C[C@H](C)C4=CC(=O)CC[C@]4(C)[C@H]3CC[C@@]21C [Medroxyprogesterone acetate] | 0.912 |
| CCCc1c(OCC(O)COc2ccc3c(=O)cc(C(=O)O)oc3c2CCC)ccc(C(C)=O)c1O (stereo not drawn) | 0.94 |
| Nc1nc2n[nH]nc2c(=O)[nH]1 [Azaguanine-8] | 0.825 |
| N[C@H](C(=O)O)[C@H](O)c1ccc(O)c(O)c1 [Droxidopa (L-DOPS)] | 0.998 |
| CN(C)c1nc(N(C)C)nc(N(C)C)n1 [Altretamine] | 0.967 |
| NC(=O)C(c1ccccc1)(c1ccccc1)[C@@H]1CCN(CCc2ccc3c(c2)CCO3)C1 [Darifenacin hydrobromide] | 0.965 |
| CCCNCC(O)COc1ccccc1C(=O)CCc1ccccc1 (stereo not drawn) [Propafenone] | 1.08 |
| CCCNCC(O)COc1ccccc1C(=O)CCc1ccccc1 (stereo not drawn) [Propafenone hydrochloride] | 0.965 |
| O=C1c2ccc(Nc3ccc(F)cc3F)cc2CCc2ccc(OC[C@H](O)CO)cc21 [Skepinone-L] | 1.09 |
| COc1ccccc1OCC(O)CN1CCN(CC(=O)Nc2c(C)cccc2C)CC1 (stereo not drawn) [Ranolazine] | 0.996 |
| O=[N+]([O-])c1cccc2cn[nH]c12 [7-Nitroindazole] | 1.08 |
| C[C@H]1C[C@@H]2[C@H]([C@@H](O)C[C@@]3(C)[C@H]2CC[C@]3(O)C(=O)CO)[C@@]2(C)C=CC(=O)C=C12 [Methylprednisolone, 6-alpha] | 0.835 |
| CN(Cc1ccccc1)C(=O)[C@H](Cc1ccc2ccccc2c1)NC(=O)[C@@H]1CCCN1C(=O)Nc1ccccc1[N+](=O)[O-] | 0.943 |
| CC(=O)Nc1nc(C)c(-c2ccc(Cl)c(S(=O)(=O)NCCO)c2)s1 | 0.98 |
| CCCCN1CCCC1CNC(=O)c1cc(C#N)c2ccccc2c1OC (stereo not drawn) [Nafadotride] | 1.06 |
| Nc1c(S(=O)(=O)O)cc(Nc2cccc3ccccc23)c2c1C(=O)c1ccccc1C2=O | 1.07 |
| OC[C@H]1O[C@@H](Oc2cc(O)cc(/C=C/c3ccc(O)cc3)c2)[C@H](O)[C@@H](O)[C@@H]1O [Polydatin (Piceid)] | 1.12 |

Reformatted: entries from further up.
SMILES | surface PD-L1 immunofluorescence intensity
C[C@@H]1CCN(C(=O)CC#N)C[C@@H]1N(C)c1ncnc2[nH]ccc12 | 0.747 and 0.696
CCCc1c(OCC(O)COc2ccc3c(=O)cc(C(=O)O)oc3c2CCC)ccc(C(C)=O)c1O (stereo not drawn) | 0.94
Nc1nc2n[nH]nc2c(=O)[nH]1 [Azaguanine-8] | 0.825

(next part)

| SMILES | surface PD-L1 immunofluorescence intensity |
| --- | --- |
| COc1ccc(C2CNC(=O)C2)cc1OC1CCCC1 (stereo not drawn) [Rolipram] | 1.01 ± 0.014 |
| CC(/C=C/c1cccc(Oc2ccc(F)cc2)c1)N(O)C(N)=O (stereo not drawn) | 0.944 |
| O=c1c(O)c(-c2ccc(O)cc2O)oc2cc(O)cc(O)c12 [Morin hydrate (Aurantica)] | 0.952 |
| CCOC(=O)[C@H](CCc1ccccc1)N[C@H]1CS[C@H](c2cccs2)CN(CC(=O)O)C1=O [Temocapril HCl] | 1.13 |
| CCCCC(F)(F)[C@@]1(O)CC[C@H]2[C@@H](CC(=O)[C@@H]2CCCCCCC(=O)O)O1 [Lubiprostone (Amitiza)] | 0.987 |
| Cc1ccc([N+](=O)[O-])cc1S(=O)(=O)N(C)C | 1.02 |
| O=S(=O)(O)c1cc(O)ccc1O [Ethamsylate] | 0.957 |
| Cc1c(O)c(=O)ccn1C [Deferiprone] | 0.881 |
| c1ccc([C@H]2CN3CCSC3=N2)cc1 [Levamisole hydrochloride] | 0.968 |
| CCC(=O)O[C@]1(C(=O)CCl)[C@@H](C)C[C@H]2[C@@H]3CCC4=CC(=O)C=C[C@]4(C)[C@@]3(F)[C@@H](O)C[C@@]21C [Clobetasol propionate] | 0.836 |
| C=CC(=O)Nc1ccc2ncnc(Nc3cccc(Br)c3)c2c1 | 1.05 |
| CC1Cc2ccccc2N1NC(=O)c1ccc(Cl)c(S(N)(=O)=O)c1 (stereo not drawn) [Indapamide] | 0.989 |
| CO/N=C(\C(=O)N[C@@H]1C(=O)N2C(C(=O)O)=C(Cn3ccc(=N)n3CCO)CS[C@H]12)c1csc(N)n1 [Cefoselis sulfate] | 1.04 |
| COc1cc(/C=C(\C#N)C(N)=O)cc(CSc2nc3ccccc3s2)c1O | 0.931 |
| CCOCC(O)COc1ccc(NC(=O)CC[S+](C)C)cc1 (stereo not drawn) [Suplatast tosylate] | 1.03 |
| O=C(NCC(O)CO)c1c(I)c(C(=O)NCC(O)CO)c(I)c(N(CCO)C(=O)CO)c1I (stereo not drawn) [Ioversol] | 1.06 |
| CO/N=C(\C(=O)N[C@@H]1C(=O)N2C(C(=O)O)=C(COC(N)=O)CS[C@H]12)c1ccco1 [Cefuroxime sodium salt] | 1.08 |
| CN1CCN(CCOc2cc(OC3CCOCC3)c3c(Nc4c(Cl)ccc5c4OCO5)ncnc3c2)CC1 [Saracatinib (AZD0530)] | 0.998 |
| Nc1ccc(S(=O)(=O)Nc2ccnn2-c2ccccc2)cc1 [Sulfaphenazole] | 0.88 |
| CCCCCCCCCCCCCCCC(=O)O[C@@H]1[C@@H](O)[C@@H](O)[C@@H]([C@H](NC(=O)[C@@H]2C[C@@H](CCC)CN2C)[C@H](C)Cl)O[C@@H]1SC [Clindamycin palmitate HCl] | 0.998 |
| Cc1cc(CC(=O)O)n(C)c1C(=O)c1ccc(Cl)cc1 [Zomepirac sodium salt] | 1 |
| O=C(O)C1=CCCNC1 [Guvacine hydrochloride] | 1.06 |
| CC#CCOC(=O)C1=CCCN(C)C1 [Arecaidine but-2-ynyl ester tosylate] | 0.942 |
| C[C@H](CCC(=O)O)[C@H]1CC[C@H]2[C@@H]3CC[C@@H]4C[C@H](O)CC[C@]4(C)[C@H]3C[C@H](O)[C@]12C [Deoxycholic acid] | 1.06 |
| C[C@H](CCC(=O)O)[C@H]1CC[C@H]2[C@@H]3CC[C@@H]4C[C@H](O)CC[C@]4(C)[C@H]3C[C@H](O)[C@]12C [Sodium Deoxycholic acid] | 0.888 |
| CC(C)=CCC/C(C)=C/CC/C(C)=C/CSCC(=O)O [Farnesylthioacetic acid] | 1.09 |
